Reference: patent US4505853A, “Enzyme-resistant immunomodulatory peptides” (Ortho Pharmaceutical Corporation, priority 1983, dated 1985)
Not every detail of the peptide structures is certain; ends, links or a residue may be inferred. Where a SMILES comes first, the peptide text is derived from it. [ ]: non-standard residue; d: D form. pGlu = O=C1CC[C@@H](C(=O)O)N1

System: thymopoeitin receptor site (membrane glycoprotein of CEM cells)
Settings: 2.3×10^-10 M of 125I-TP, 4 g of binding protein, incubation 12 h

SMILES: C[C@H](NC(=O)[C@@H]1CCC(=O)N1)C(=O)N[C@@H](CCCCN)C(=O)N[C@@H](CO)C(=O)N[C@@H](CCC(N)=O)C(=O)NCC(=O)NCC(=O)N[C@@H](CO)C(=O)N[C@@H](CC(N)=O)C(=O)O [FTS, reference compound] ([pGlu]AKSQGGSN-OH)
- displacement of 125I-TP / receptor assay result, in words: no detectable displacement
